PubChem BioAssay AID504784 – Drosophila RNAi Screening Center | 2011

- Aim: 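Fly genes whose silencing alters how much lipid cells keep in droplets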 (primary screen)
- Cells: Drosophila Kc167 embryonic cells
- Knock-down reagent: long dsRNA against Drosophila genes, about 250 ng dsRNA per well
- Duration: 4 days
- Conditions: cells fed 400 µM oleic acid bound to BSA
- Detection: 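Microscope images give a droplet-to-nucleus area ratio, taken as log and converted to a screen-wide B-score; higher values mean greater lipid storage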
- Reading the numbers: droplet/nuclear area B-score: higher = more stored lipid (overstorage)
In all, the deposit lists about 17,000 reagents; shown is a random part of those with a known target gene and a result. 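Each column is one replicate's B-score; the combined score over replicates was not deposited, so single values may mislead.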 Names joined by + are all predicted targets of the reagent.

Which result is listed for CG18530 [DRSC15341]?
droplet/nuclear area B-score, replicate 1: -0.788; droplet/nuclear area B-score, replicate 2: 0.202

With CG4830 [DRSC15657], how do the results read?
droplet/nuclear area B-score, replicate 1: 0.178; droplet/nuclear area B-score, replicate 2: 0.299

With CG17327 [DRSC15225], what does the deposit list?
droplet/nuclear area B-score, replicate 1: 2.54; droplet/nuclear area B-score, replicate 2: 1.6

What is on record for Qsox4 [DRSC14224]?
droplet/nuclear area B-score, replicate 1: 4.34; droplet/nuclear area B-score, replicate 2: -1.19

Which result is listed for CG4250 [DRSC04455]?
droplet/nuclear area B-score, replicate 1: -0.298; droplet/nuclear area B-score, replicate 2: 0.237

What is on record for CG5254 [DRSC18611]?
droplet/nuclear area B-score, replicate 1: -0.005; droplet/nuclear area B-score, replicate 2: 0.0297

What did the screen give for lectin-24A [DRSC00604]?
droplet/nuclear area B-score, replicate 1: 0.544; droplet/nuclear area B-score, replicate 2: -0.921

For CG42232 [DRSC15018], how do the results read?
droplet/nuclear area B-score, replicate 1: -0.664; droplet/nuclear area B-score, replicate 2: 0.242

How did the screen score CG42232 [DRSC15019]?
droplet/nuclear area B-score, replicate 1: -1.3; droplet/nuclear area B-score, replicate 2: 2.04

Which result is listed for CG17549 [DRSC02625]?
droplet/nuclear area B-score, replicate 1: -2.86; droplet/nuclear area B-score, replicate 2: -0.912

What did the screen give for PheRS-m [DRSC05915]?
droplet/nuclear area B-score, replicate 1: 0.849; droplet/nuclear area B-score, replicate 2: -1.29

Which result is listed for Der-2 [DRSC15021]?
droplet/nuclear area B-score, replicate 1: -0.254; droplet/nuclear area B-score, replicate 2: -1.7

For Cpr78Cc [DRSC11846], how do the results read?
droplet/nuclear area B-score, replicate 1: 1.31; droplet/nuclear area B-score, replicate 2: 0.00137

What did the screen give for Trmt112 [DRSC11685]?
droplet/nuclear area B-score, replicate 1: -1.15; droplet/nuclear area B-score, replicate 2: -0.673

For slou [DRSC17058], how do the results read?
droplet/nuclear area B-score, replicate 1: -0.547; droplet/nuclear area B-score, replicate 2: -1.27

For rswl [DRSC06923], what does the deposit list?
droplet/nuclear area B-score, replicate 1: 0.5; droplet/nuclear area B-score, replicate 2: 0.123

What is on record for Snap29 [DRSC04721]?
droplet/nuclear area B-score, replicate 1: 0.114; droplet/nuclear area B-score, replicate 2: 0.0195

What is on record for Dscam2 [DRSC08869]?
droplet/nuclear area B-score, replicate 1: 1.7; droplet/nuclear area B-score, replicate 2: -0.372

For Dscam2 [DRSC10198], what does the deposit list?
droplet/nuclear area B-score, replicate 1: -1.4; droplet/nuclear area B-score, replicate 2: 0.67

What did the screen give for Dscam2 [DRSC11018]?
droplet/nuclear area B-score, replicate 1: 0.0647; droplet/nuclear area B-score, replicate 2: -0.704

For Dscam2 [DRSC11019], what was measured?
droplet/nuclear area B-score, replicate 1: -0.215; droplet/nuclear area B-score, replicate 2: 0.118

Which result is listed for Dscam2 [DRSC22526]?
droplet/nuclear area B-score, replicate 1: 1.9; droplet/nuclear area B-score, replicate 2: 2.92

What is on record for CG31952 [DRSC00428]?
droplet/nuclear area B-score, replicate 1: -0.62; droplet/nuclear area B-score, replicate 2: -0.536

With CG31952 [DRSC21997], what was measured?
droplet/nuclear area B-score, replicate 1: 0.416; droplet/nuclear area B-score, replicate 2: -1.59

What is on record for CG6296 [DRSC16013]?
droplet/nuclear area B-score, replicate 1: -0.488; droplet/nuclear area B-score, replicate 2: 3.34

What is on record for CG17198 + CG17197 [DRSC15190]?
droplet/nuclear area B-score, replicate 1: 0.226; droplet/nuclear area B-score, replicate 2: 0.247

For CG17198 + CG17197 [DRSC15191], what does the deposit list?
droplet/nuclear area B-score, replicate 1: 1.63; droplet/nuclear area B-score, replicate 2: -0.742

With CG14333 (retired record) [DRSC14812], what does the deposit list?
droplet/nuclear area B-score, replicate 1: 0.379; droplet/nuclear area B-score, replicate 2: -1.25

For CG14333 (retired record) [DRSC15769], what does the deposit list?
droplet/nuclear area B-score, replicate 1: -0.598; droplet/nuclear area B-score, replicate 2: -0.0181

With rst [DRSC17243], what does the deposit list?
droplet/nuclear area B-score, replicate 1: 2.58; droplet/nuclear area B-score, replicate 2: -1.14

With rst [DRSC18828], how do the results read?
droplet/nuclear area B-score, replicate 1: 1.14; droplet/nuclear area B-score, replicate 2: 0.514

For CG5989 [DRSC10565], what does the deposit list?
droplet/nuclear area B-score, replicate 1: 0.0202; droplet/nuclear area B-score, replicate 2: 1.94

How did the screen score b [DRSC03487]?
droplet/nuclear area B-score, replicate 1: 0.254; droplet/nuclear area B-score, replicate 2: -0.0787

What is on record for CG7083 [DRSC11136]?
droplet/nuclear area B-score, replicate 1: 0.3; droplet/nuclear area B-score, replicate 2: -0.034

Which result is listed for Klp68D [DRSC11206]?
droplet/nuclear area B-score, replicate 1: 0.278; droplet/nuclear area B-score, replicate 2: 0.422

For CG9427 [DRSC16490], what was measured?
droplet/nuclear area B-score, replicate 1: 0.733; droplet/nuclear area B-score, replicate 2: -0.548

How did the screen score Fer3 [DRSC16133]?
droplet/nuclear area B-score, replicate 1: 0.995; droplet/nuclear area B-score, replicate 2: 0.341

For CG4577 [DRSC00658], what does the deposit list?
droplet/nuclear area B-score, replicate 1: -0.0611; droplet/nuclear area B-score, replicate 2: -0.683

How did the screen score CG33543 [DRSC00384]?
droplet/nuclear area B-score, replicate 1: 2.01; droplet/nuclear area B-score, replicate 2: 0.0073

With CG33543 [DRSC00385], what does the deposit list?
droplet/nuclear area B-score, replicate 1: -0.0298; droplet/nuclear area B-score, replicate 2: -0.0297

2 of these entries in another layout:
{"Gene":"CG18530","dsRNA":"DRSC15341","droplet/nuclear area B-score, replicate 1":-0.788,"droplet/nuclear area B-score, replicate 2":0.202}
{"Gene":"CG4830","dsRNA":"DRSC15657","droplet/nuclear area B-score, replicate 1":0.178,"droplet/nuclear area B-score, replicate 2":0.299}
